Where a name gives a salt, the structure may show the parent alone. At least one compound was matched to its structure with a doubt left.
Assays:
[1] = tested on: Candida albicans (MY 1055); assay: In vivo kidney CFU reduction in mice infected with Candida albicans; set-up: species or system female DBA/2 mice; conditions: experimentally infected mice
Experimental: Growth from an overnight SDA culture of Candica albicans MY 1055 was suspended in sterile saline and the cell concentration determined by hemacytometer count and the cell suspension adjusted to 3.75 x 10^5 cells/ml. Then 0.2 milliliter of this suspension was administered I.V. in the tail vein of mice so that the final inoculum was 7.5 x 10^4 cells/mouse.
The assay then was carried out by administering aqueous solutions of Compound I at various concentrations intraperitoneally (I.P.), twice daily (b.i.d.) for four consecutive days to 18 to 20 gram female DBA/2 mice, which previously had been infected with Candida albicans (MY 1055) in the manner described above. Distilled water was administered I.P. to C. albicans challenged mice as controls. After seven days, the mice were sacrificed by carbon dioxide gas, paired kidneys were removed aseptically and placed in sterile polyethylene bags containing 5 milliters of sterile saline. The kidneys were homogenized in the bags, serially diluted in sterile saline and aliquots spread on the surface of SDA plates. The plates were incubated at 35°C for 48 hours and yeast colonies were enumerated for determination of colony forming units (CFU) per gram of kidneys.

[2] = tested on: Candida albicans; assay: Survival of mice infected with Candida albicans; conditions: mouse, in vivo
[3] = tested on: Pneumocystis carinii; assay: Pneumocystis carinii pneumonia in immunosuppressed rats, lung cysts; format: in vivo, Sprague-Dawley rats; conditions: sc twice daily for four days, compared with untreated or solvent controls

## CCC(C)CC(C)CCCCCCCCC(=O)NC1CC(O)C(OCCN)NC(=O)C2C(O)CCN2C(=O)C(C(O)CC(N)=O)NC(=O)C(C(O)C(O)c2ccc(O)cc2)NC(=O)C2CC(O)CN2C(=O)C(C(C)O)NC1=O (stereo not drawn) [Compound I, 1-[4-hydroxy-5-aminoethyloxy-N^2-(10,12-dimethyl-1-oxotetradecyl)-ornithine]-5-(3-hydroxyglutamine)-6-(3-hydroxyproline)-echinocandin B trifluoroacetate]
[1]
  eradication of Candida albicans from kidneys: eradicate Candida albicans from kidneys
[2]
  survival of mice infected with Candida albicans: significantly prolong the survival
[3]
  cysts in slides of lungs of treated rats: prevention of or reduction of cysts

— patent publication EP0539088B1, “Echinocandin b derivative” (MERCK & CO. INC., priority 1991, dated 1993)
